One may read the AC50 as the midpoint of the concentration-response curve, whichever way the signal moves. Higher therefore signals activity only at high concentration.

Among the data in PubChem BioAssay AID2685 (National Center for Advancing Translational Sciences (NCATS), 2010) are cell number change and AC50 values, retold here.

This assay can be described thus: qHTS Assay for Lipid Storage Modulators in Drosophila S3 Cells.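 As to cell number change: cells counted by Cell Tracker Red CMTPX staining in the red channel.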 The conditions noted are these: BODIPY lipid droplet fluorescence, 18-24 h; for cell number change: measured here: cell count max response, cells fed with added oleic acid. Put shortly:
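Laser-scanning cytometry quantifies lipid droplet accumulation (500–530 nm total intensity; droplet/cell object ratio) in oleic acid-fed (400 uM added) Drosophila S3 cells treated with a concentration series. 20 uM Triacsin C defined 100% inhibition.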
For orientation: In qHTS, concentration-response curves come from the screen itself.

The mark [1] stands for this setting: measured here: cell number channel AC50, cells fed with added oleic acid.
The mark [2] stands for this setting: measured here: lipid fluorescence (Fed channel) AC50, cells fed with added oleic acid.

The other results are listed elsewhere or left out. Shown are side measurements of this screen, not its main read-out; they come without a call. Most of these compounds were active or inconclusive in the main read-out, so they are no random draw. Potencies come from curve fits of mixed quality, noted in brackets.

Regarding `COC(=O)CSc1nnc(NC(=O)/C=C\c2ccc3c(c2)OCO3)s1`, the cell number change was -83.3%. For the same molecule, the AC50 under setting [1] is 29.1 µM [falling, single point]. Moreover, under setting [2], the AC50 is 0.517 µM [rising, full curve, poor fit].

Regarding `CCOC(=O)c1c(C(C)(C)C)oc2ccc(O)cc12`, the cell number change is -54.3%. For the same molecule, the AC50 under setting [1] is 29.1 µM [falling, single point]. Besides, the AC50 under setting [2] is 29.1 µM [falling, single point].

For the molecule `CCCCCCCCNC(=O)c1cccnc1SCC(=O)Nc1ccccc1OC`, the cell number change was found to be 7.25%. Under setting [2], the AC50 is 0.58 µM [rising, full curve, poor fit].

On to `COc1cc(CC(=O)Nc2cccc(C(F)(F)F)c2)cc(OC)c1OC`, for which the cell number change was 7.02%. Under setting [1], the AC50 was 0.92 µM [rising, partial curve].

For `Cc1cnc(NC(=O)CC2OC(=O)c3ccccc32)s1` (centres undefined), the cell number change was 6.5%.

Regarding `Cc1ccc(NC(=O)N(C2CCCCC2)C(C)c2cccnc2)cc1C` (centres undefined), the cell number change was -1.41%.

Regarding `O=C(Cc1cccs1)N(Cc1cccs1)C1(C(=O)NC2CCCC2)CCCCC1`, the cell number change is 46%. Besides, under setting [1], the AC50 is 20.6 µM [rising, single point].

As to `Cn1ccsc1=NC(=O)c1ccc(=O)[nH]c1`, the cell number change was 26%. For the same molecule, the AC50 under setting [2] was 0.291 µM [rising, full curve, poor fit].

For the molecule `COc1ccccc1CCNC(=O)C(=O)NCC1OCCN1S(=O)(=O)c1ccccc1` (centres undefined), the cell number change amounted to 17.3%. The AC50 under setting [2] is 0.291 µM [rising, partial curve, poor fit].

`CC1(C)C2CC=C(/C=N/NC(=O)c3ccccc3O)C1C2` (centres undefined): the cell number change was -39.5%. Also, the AC50 under setting [1] was 0.0164 µM [falling, full curve]. Moreover, the AC50 under setting [2] was 6.51 µM [falling, full curve].

Consider `CN(CC(=O)Nc1cccc(F)c1)C(=O)c1ccc2c(c1)NC(=O)CS2`, for which the cell number change was -3.05%. For the same molecule, the AC50 under setting [1] is 2.91 µM [rising, single point]. Further, the AC50 under setting [2] was 1.46 µM [rising, partial curve].

For `COc1ccc(N2CCN(C(=O)CSc3nnc4c(C)cc5ccccc5n34)CC2)cc1`, the cell number change was found to be 80.9%. Further, the AC50 under setting [1] was 3.66 µM [rising, full curve]. Also, under setting [2], the AC50 is 0.116 µM [rising, full curve, poor fit].

On to `COc1ccc(-c2cc3c(nn2)-c2ccccc2C3=O)cc1`, for which the cell number change was -22.8%.

Turning to `COc1ccc(NC(=O)CN2C(=O)c3ccccc3S2(=O)=O)cc1S(=O)(=O)N1CCOCC1`, the cell number change is -3.74%. Also, the AC50 under setting [2] was 6.51 µM [falling, single point].

For `CC1(C)Cc2cccc(OCC(=O)Nc3nccs3)c2O1`, the cell number change was -12.5%.

In the case of `COc1ccc(N=C2NN=C(c3ccc4c(c3)OCCO4)CS2)cc1`, the cell number change amounted to 8.42%. In addition, the AC50 under setting [2] was 1.64 µM [rising, partial curve, poor fit].

Regarding `Cn1nccc1C(=O)N1CCN(c2ccccc2Cl)CC1`, the cell number change was determined as 13.6%.

For `COc1ccccc1NC(=O)CSC1=NC(=O)C(NC(C)=O)C(=O)N1` (centres undefined), the cell number change was -26.7%. Moreover, the AC50 under setting [1] is 3.26 µM [falling, single point]. For the same molecule, the AC50 under setting [2] is 13 µM [falling, partial curve].

In the case of `COc1ccc(/C=N\NC(=O)c2sccc2C)cc1Cn1nc(C)cc1C`, the cell number change worked out at 4.99%.

In the case of `CC1(C)CC(=O)c2c(Cc3ccccc3)n[nH]c2C1`, the cell number change was 19%. For the same molecule, under setting [1], the AC50 was 1.84 µM [rising, partial curve, poor fit].

Regarding `COc1ccccc1N(CC(O)Cn1ccnc1C)S(=O)(=O)c1ccc(C)cc1` (centres undefined), the cell number change is -15.9%. Besides, the AC50 under setting [2] is 2.59 µM [falling, full curve].

For the molecule `COc1ccc(-c2nc(SCC(=O)Nc3nccs3)c(-c3ccc(Cl)cc3)[nH]2)cc1`, the cell number change is -34.2%. The concentration at half-maximal activity (AC50) under setting [1] was 20.6 µM [falling, partial curve]. In addition, the AC50 under setting [2] is 16.4 µM [falling, partial curve].

Take `Cc1ccc(C)c(NC(=S)c2ccc3ccccc3n2)c1`: the cell number change was -87.4%. For the same molecule, the AC50 under setting [1] was 23.1 µM [falling, single point]. Under setting [2], the concentration at half-maximal activity (AC50) was 29.1 µM [falling, single point].

`COc1ccc(CCC(=O)NCCc2cn3c(C)csc3n2)cc1`: the cell number change was found to be 40.6%. Besides, under setting [1], the AC50 is 1.03 µM [rising, partial curve]. In addition, the AC50 under setting [2] is 1.03 µM [rising, partial curve].

`CCOC(=O)C1=C(c2ccccc2)NC(=O)NC1c1ccc(O)c(Cl)c1` (centres undefined): the cell number change was -11.4%.

For the molecule `CCCCn1c2nc3ccccc3nc2c2c(=O)n(CCC)cnc21`, the cell number change came out at 16.4%. In addition, the AC50 under setting [2] is 0.92 µM [rising, partial curve].

For the molecule `Cc1cccc(C)c1NC(=O)CN(C)C(C)C(=O)NCC(=O)Nc1ccc(F)c(F)c1F` (centres undefined), the cell number change is -16%.

`CCOC(=O)COn1c(=O)c(-c2ccc(C)cc2)[n+]([O-])c2ccccc21`: the cell number change is -0.741%. Besides, the AC50 under setting [2] is 0.082 µM [rising, partial curve, poor fit].

Regarding `CC1(C#N)c2ccccc2C(Br)=CN1C(=O)c1ccccc1` (centres undefined), the cell number change is -6.34%. Besides, under setting [2], the AC50 was 23.1 µM [rising, single point].

For the molecule `CCOc1nc(NC(=O)NS(=O)(=O)Oc2ccccc2Cl)nc(-c2ccccc2)n1`, the AC50 reads like this: under setting [1], 0.366 µM [rising, full curve]; under setting [2], 8.2 µM [rising, partial curve].

As for `CCOC(=O)[C@@H]1[C@H]2COc3ccccc3[C@H]2N2C(=O)N(c3ccccc3)C(=O)[C@]12C`, the cell number change was -17.5%.

`COc1cccc(CNC(=O)Cn2c(=O)oc3cc(S(=O)(=O)N4CCCCC4)ccc32)c1`: the cell number change came out at 18.4%. The AC50 under setting [2] was 16.4 µM [falling, partial curve, poor fit].

As to `COc1ccc(C2(O)CC3CCC(C2)N3c2cc(C)nc(-c3ccccc3)n2)cc1` (centres undefined), the cell number change was -18.5%.

As to `COc1ccccc1C(=O)N/C(=C\c1cn(S(=O)(=O)N(C)C)c2ccccc12)C(=O)N1CCCCC1`, the AC50 under setting [2] is 0.58 µM [rising, single point].

Regarding `COc1ccccc1Nc1nc(N)nc(CSC(=S)N2CCN(c3ccccc3)CC2)n1`, the AC50 under setting [2] is 13 µM [rising, partial curve, poor fit].

For the molecule `CCOc1ccccc1CNC(c1ccccc1)c1ccccc1`, the cell number change was 13.2%. For the same molecule, the AC50 under setting [2] was 6.51 µM [rising, partial curve].

For `COc1ccc(NS(=O)(=O)c2cc(NC(=O)CNC(=O)c3ccc(C)s3)ccc2Cl)cc1`, the cell number change was 74.2%. Further, under setting [1], the AC50 was 2.91 µM [rising, partial curve, poor fit]. Also, under setting [2], the AC50 is 7.31 µM [rising, partial curve].

In the case of `O=C(CSc1n[nH]c(-c2ccccn2)n1)Nc1cccc(Cl)c1`, the cell number change is -30.3%. Moreover, the AC50 under setting [1] was 13 µM [falling, partial curve, poor fit].
